The list shows a part of the results. These are raw signals, not scaled to a control.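 First-pass screen: polymyxin B was added at a level that permeabilizes the Salmonella outer membrane while sparing the inner membrane. DMSO wells, with and without polymyxin B, defined maximum growth. Because plates differed from one another, each plate's data were ranked separately and the compounds with the lowest OD600 were carried forward as hits.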
Test system: Salmonella enterica serovar Typhimurium SL1344
Test: bacterial growth OD600 after 18 h with compound and polymyxin B; higher = more bacterial growth (less inhibition)
Details: 50 µM, Mueller-Hinton broth

Structure (SMILES)	bacterial growth OD600 (polymyxin B 0.75 µg/mL)	bacterial growth OD600 (polymyxin B 1 µg/mL)
CN(Cc1ccccc1C(F)(F)F)C(=O)CC1(c2ccccc2)CC(=O)N(Cc2cccnc2)C1=O (centres undefined)	0.401	
COc1ccc(F)c(CC2(CCC(=O)NCc3nc(-c4ccccc4)cs3)CCC(=O)N2)c1 (centres undefined)	0.74	
Cc1cccc(C(=O)N2CCCC(CNC(=O)c3ccc(F)cc3)C2)n1 (centres undefined)		0.954
CC(C)CNc1ccc(C(=O)N2CCC(CCn3cccn3)CC2)cn1	0.776	
Cc1nc2ccccc2n1Cc1cc(C(=O)N2CCCCC2CCO)no1 (centres undefined)	0.891	
Cc1oc(-c2cccc(NC(=O)C3CCCN(C)C3)c2)nc1CNC(=O)c1cccs1 (centres undefined)	0.833	
COc1ccc(C(C)N(C)C(=O)CC2(c3ccc(-c4ccccc4)cc3)CC(=O)N(C)C2=O)cc1 (centres undefined)	0.017	
Cc1ncc2c(c1CNC(=O)/C=C/c1cccs1)CCN(C(=O)/C=C/c1c(F)cccc1F)C2	0.005	
Cc1ccc(C)c(-n2cc(CN3CCN(C(=O)c4nc[nH]n4)CC3)c(-c3ccccc3)n2)c1		0.586
CCc1ncc(CN2CCC(C3CCN(c4ncccn4)CC3)C2)cn1 (centres undefined)	0.788	
O[C@@H]1CN(CCCn2cccn2)CC[C@H]1N1CCN(c2ccccn2)CC1		1.3
Cc1cnc(C)c(-c2ccc3c(c2)CC(CNC(=O)c2ccc(OC(C)C)cc2)O3)n1 (centres undefined)	0.438	
CCC(C)n1cc(C(=O)NC2CCN(Cc3ccccc3)CC2)c(=O)c(C(=O)N2CCCCCC2)c1 (centres undefined)	0.877	
CCc1ccc(CN(C)c2nncc(-c3cccc(F)c3)n2)nc1		0.167
Cc1ccc(-c2nc(CN3CCCCC3c3cccc(F)c3)c(C)o2)o1 (centres undefined)		0.863
COc1cc(CN(C(=O)C2CCC2)[C@H]2CCCCNC2=O)ccc1OCCc1scnc1C	0.724	
Cc1ccc(C(=O)Nc2ccc(N3CCC(NCc4cnn(Cc5ccccc5)c4)CC3)cc2)c(C)c1	0.834	
O=C1CN(C(=O)C2CCN(c3nc(-c4ccccc4)nc4c3CCC4)CC2)CCN1	0.897	
CCOc1cccc(CN2CCCC(c3[nH]ncc3CC(C)C)C2)c1O (centres undefined)	0.943	

2 entries picked at random from the list so far:
Structure (SMILES)	bacterial growth OD600 (polymyxin B 0.75 µg/mL)	bacterial growth OD600 (polymyxin B 1 µg/mL)
CN(Cc1ccccc1C(F)(F)F)C(=O)CC1(c2ccccc2)CC(=O)N(Cc2cccnc2)C1=O (centres undefined)	0.401	
Cc1oc(-c2cccc(NC(=O)C3CCCN(C)C3)c2)nc1CNC(=O)c1cccs1 (centres undefined)	0.833	

Reference: the supplement of paper PMC12889115
